Results as given in PubChem BioAssay AID504467 (National Center for Advancing Translational Sciences (NCATS), 2011).
Screen size: about 330,000 compounds; about 7,700 (2.3%) were called active. Inconclusive means that the source gave no clear call. Such entries were picked first, then a sample of the others. Calls come from the whole dose curve; as a rule, active = well fitted inhibition curve with a large enough effect; inconclusive = small, poorly fitted or top-dose-only effect, or effect the other way; inactive = flat fitted curve, though single readings scatter. Potencies of inconclusive entries are doubtful fits and often do not repeat.

assay: qHTS screen for small molecules that inhibit ELG1-dependent DNA repair in human embryonic kidney (HEK293T) cells expressing luciferase-tagged ELG1; conditions: HEK293T ELG1-luciferase reporter, luminescence, 16 h, DNA damage induced by 5-fluorouridine; activity change, negative = inhibition: at 46.1 µM (top of the series); note: nearly all actives have a fitted effect of over 55% in size
Outline: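 Overnight (16 hr) co-exposure of 2,000 cells/well to 5-fluorouridine and compound at 37 °C preceded detection. Luciferase was quantified via ONE-Glo luminescence; loss of signal denotes inhibition.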
% is set by controls: 0 for no effect and ±100 for the full control effect; potency is the fitted concentration of half-maximal effect.

Q: Which “activity change, negative = inhibition” value does the source give for `CCOC(=O)C(C)/C(C)=N/NC(=O)CCC(=O)Nc1cc(C)ccc1C` (stereo unspecified) here?
A: inactive: -5.72%

Q: For `COc1cccc(-n2c(=S)[nH]c3c(oc4ccccc43)c2=O)c1`, which Potency is on record?
A: inconclusive: 18.3 µM [activator, single point]

Q: Which Potency does the source give for `O=c1c2c(C(F)(F)F)cc(C(F)(F)F)nc2[nH]n1-c1ccccc1` here?
A: active: 25.9 µM

Q: Which “activity change, negative = inhibition” value does the source give for `COc1ccc(C(C)=NNC(=O)c2cccc(S(=O)(=O)N3CCCC3)c2)cc1` here?
A: inactive: -17.5%

Q: For `COc1ccc(OCC(=O)Nc2ncc3c(n2)CC(C)(C)CC3=O)cc1`, which “activity change, negative = inhibition” value is on record?
A: inactive: -0.785%

Q: With `Cc1ccc(NC(=O)COC(=O)c2ccnn2C)cc1` as the molecule, how does the Potency read?
A: inconclusive: 25.9 µM [activator, single point]

Q: With `COCCCNC(=O)C[C@H]1C[C@H](C(=O)N2CCCCC2)[C@@]2(C)c3[nH]c4ccc(Cl)cc4c3CCN2C1=O` as the molecule, how does the Potency read?
A: inconclusive: 13 µM [inhibitor, partial curve]

Q: Which Potency does the source give for `COc1cccc(NC(=O)CN(C)C(=O)CCCNC(=O)c2ccc(Cl)cc2)c1` here?
A: inconclusive: 18.3 µM [activator, single point]

Q: For `CCCN1CCN(CCCNC(=O)c2ccc3c(Cl)c4c(nc3c2)CCCC4)CC1`, which “activity change, negative = inhibition” value is on record?
A: inactive: 8.1%

Q: With `Cc1sc2ncnc(N3CCC(C)CC3)c2c1C` as the molecule, how does the Potency read?
A: inconclusive: 13 µM [inhibitor, partial curve, poor fit]

Q: With `COc1ccccc1N=Nc1[nH]c2ccc(C)cc2c1O` as the molecule, how does the Potency read?
A: inconclusive: 14.6 µM [activator, partial curve]

Q: For `COc1ccc(-c2csc(Nc3ccccc3)n2)cc1`, which Potency is on record?
A: inconclusive: 5.17 µM [activator, partial curve]

Q: For `COc1ccc(N(CC(=O)Nc2ccc(OC)c(Cl)c2)S(=O)(=O)c2c(C)noc2C)cc1`, which Potency is on record?
A: inconclusive: 23.1 µM [inhibitor, single point]

Q: Which “activity change, negative = inhibition” value does the source give for `Cc1csc(C(=O)O)c1NC(=O)c1c(Cl)cccc1Cl` here?
A: inactive: 9.21%

Q: For `CC(=O)c1cccc(NC(=O)c2ccc(N(Cc3ccccc3C)S(C)(=O)=O)cc2)c1`, which Potency is on record?
A: active: 25.9 µM

Q: For `Cc1ccc2oc(=O)n(CCCOc3ccccc3C)c2c1`, which Potency is on record?
A: inconclusive: 29.1 µM [activator, single point]

Q: Which Potency does the source give for `CCN(CC)S(=O)(=O)c1ccc(Cl)c(NC(=O)COC(=O)/C=C/c2ccc(O)c(OC)c2)c1` here?
A: inconclusive: 29.1 µM [inhibitor, single point]

Q: Which Potency does the source give for `CCOc1ccc(C(=O)Nc2cc(-c3nc4ccccc4[nH]3)ccc2Cl)cc1[N+](=O)[O-]` here?
A: inconclusive: 18.4 µM [inhibitor, partial curve]

Q: For `COc1ccc(S(=O)(=O)N2CCc3ccccc32)cc1C(=O)NCCc1ccc(S(N)(=O)=O)cc1`, which “activity change, negative = inhibition” value is on record?
A: inactive: -0.588%

Q: Which Potency does the source give for `COC(=O)COc1c(Cl)cc(C(c2c(C)[nH][nH]c2=O)c2c(C)[nH][nH]c2=O)cc1OC` here?
A: inconclusive: 8.2 µM [inhibitor, single point]

Q: Which “activity change, negative = inhibition” value does the source give for `CC(C)C(=O)N1CCN(c2ccccc2NC(=O)c2ccc(C#N)cc2F)CC1` here?
A: inactive: -11.7%

Q: Which “activity change, negative = inhibition” value does the source give for `CN(CCOc1ccccc1)S(=O)(=O)c1ccc2oc3ccccc3c2c1` here?
A: inactive: -16.8%

Q: For `CC1(c2cc([N+](=O)[O-])cc([N+](=O)[O-])c2)CC(C)(C)N(C(=O)c2ccccc2)c2ccccc21` (stereo unspecified), which “activity change, negative = inhibition” value is on record?
A: inactive: -11.6%

Q: With `O=c1ccc(C(F)(F)F)cn1Cc1cc(=O)n2ccsc2n1` as the molecule, how does the Potency read?
A: inconclusive: 25.9 µM [activator, partial curve, poor fit]

Q: With `O=C(ONC1=NCCCCC1)c1c(F)cccc1F` as the molecule, how does the Potency read?
A: inconclusive: 29.1 µM [inhibitor, single point]

Q: For `CC(C)c1ccc(OCC(=O)N2CCCCCC2)c(Br)c1`, which Potency is on record?
A: inconclusive: 18.3 µM [activator, partial curve]

Q: With `COC(=O)c1cc(C#N)c(N2CC(C)OC(C)C2)nc1C` (stereo unspecified) as the molecule, how does the Potency read?
A: inconclusive: 18.3 µM [inhibitor, partial curve, poor fit]

Q: For `CCCNC(=S)N(Cc1ccccc1)Cc1nc2ccccc2c(=O)[nH]1`, which Potency is on record?
A: inconclusive: 29.1 µM [inhibitor, single point]

Q: For `Cc1c(O)ccc(C(=O)CN2CCN(c3ccc(F)cc3)CC2)c1O`, which “activity change, negative = inhibition” value is on record?
A: inactive: 0.278%

Q: Which “activity change, negative = inhibition” value does the source give for `O=C(O)c1cccc(NC(=O)c2cccc(S(=O)(=O)N3CCc4ccccc4C3)c2)c1` here?
A: inactive: 10%

Q: Which “activity change, negative = inhibition” value does the source give for `C/C(=C1/C(=O)N(c2ccc([N+](=O)[O-])cc2)N=C1c1ccccc1)N(C)C` here?
A: inactive: -0.335%

Q: For `Cc1nn(Cc2ccc(Br)cc2)c(C)c1NC(=O)c1nn(C)cc1Cl`, which “activity change, negative = inhibition” value is on record?
A: inactive: -22.3%

Q: For `Oc1c(C(Nc2ccccn2)c2ccccn2)ccc2cccnc12` (stereo unspecified), which Potency is on record?
A: inconclusive: 5.62 µM [inhibitor, single point]

Q: With `Cc1cc(C)nc(NC(=O)CSc2nnnn2-c2ccccc2)n1` as the molecule, how does the Potency read?
A: inconclusive: 23.1 µM [activator, single point]

Q: With `CCn1cc(/C=N\NC(=O)c2ccc3c(c2)c(C)c(C)n3Cc2ccccc2)c(C)n1` as the molecule, how does the “activity change, negative = inhibition” value read?
A: inactive: -7.53%

Q: Which “activity change, negative = inhibition” value does the source give for `COc1ccc(CC2(CO)CCN(Cc3ccc(OC(F)(F)F)cc3)CC2)cc1` here?
A: inactive: -27.8%

Q: For `N#C/C(=N\Nc1ccccc1F)C(=N)N1CCCCC1`, which Potency is on record?
A: inconclusive: 9.2 µM [activator, partial curve]

Q: For `CCN(c1ccccc1)S(=O)(=O)c1ccc(Cl)c(NC(=O)CN2CCCCCC2)c1`, which Potency is on record?
A: active: 16.4 µM

Q: With `Cc1cc(N2CCN(c3ccccc3)CC2)n2c(n1)nc1ccccc12` as the molecule, how does the Potency read?
A: inconclusive: 32.6 µM [inhibitor, partial curve, poor fit]

Q: With `Cc1ccc(S(=O)(=O)N2CCCCC2)cc1NC(=O)CSc1nccn1C` as the molecule, how does the “activity change, negative = inhibition” value read?
A: inactive: 3.75%

Q: For `O=C(NNC(=O)C1CCC1)c1ccc(Cl)cc1`, which “activity change, negative = inhibition” value is on record?
A: inactive: 1.85%

Q: Which Potency does the source give for `COc1ccccc1NS(=O)(=O)c1cccc(NC(=O)NCCCl)c1` here?
A: inconclusive: 23.1 µM [inhibitor, single point]

Q: For `O=C(Nc1cccc(-c2nc3ccccc3[nH]2)c1)c1cccc(NC(=O)c2ccco2)c1`, which Potency is on record?
A: inconclusive: 4.11 µM [inhibitor, full curve]

Q: For `CCC1CCCCN1CCCNC(=O)c1ccc2c(c1)c(C)c(C)n2C` (stereo unspecified), which Potency is on record?
A: inconclusive: 6.51 µM [activator, single point]

Q: Which Potency does the source give for `O=C(NC(=O)c1ccccc1)Nc1ccccn1` here?
A: inconclusive: 0.164 µM [activator, partial curve]

Q: With `Cn1c2ccc(F)cc2c2ncn(Cc3ccco3)c(=O)c21` as the molecule, how does the Potency read?
A: inconclusive: 29.1 µM [inhibitor, single point]
